Test results taken from patent US8324264B1, “Inhibitors of bacterial biofilms and related methods” (Sequoia Sciences, Inc., priority 2011, dated 2012).
Some results were stated once for a whole list of compounds, not compound by compound.

Assay: Bioavailability in mice (oral or IP), serum level
Assay type: in vivo
Settings: orally or via IP injection at approximately 20 mg/kg to 50 mg/kg; 30 minutes or 1 hour after administration

Compound	concentration in the serum of mice
CC1(C)CC[C@]2(C(=O)O)CC[C@]3(C)C(=CCC4[C@@]5(C)Cc6c(n[nH]c6N)C(C)(C)[C@@H]5CC[C@]43C)[C@@H]2C1 (stereo partly drawn) [Compound 1, (4aS,6aS,6bR,13aR)-12-Amino-2,2,6a,6b,9,9,13a-heptamethyl-2,3,4,4a,5,6,6a,6b,7,8,8a,9,11,13,13a,13b,14,15b-octadecahydro-1H-chryseno[1,2-f]indazole-4-a-carboxylic acid]	> 5000 ng/mL
CN(C)C[C@]12CCC(C)(C)C[C@H]1C1=CC[C@@H]3[C@@]4(C)Cc5c(n[nH]c5N)C(C)(C)[C@@H]4CC[C@@]3(C)[C@]1(C)CC2 [Compound 64]	> 5000 ng/mL
CC1(C)CC[C@]2(c3cc(O)[nH]n3)CC[C@]3(C)C(=CCC4[C@@]5(C)Cc6c(n[nH]c6N)C(C)(C)[C@@H]5CC[C@]43C)[C@@H]2C1 (stereo partly drawn) [Compound 68, 3-((4aS,6aS,6bR,13aR)-12-Amino-2,2,6a,6b,9,9,13a-heptamethyl-2,3,4,4a,5,6,6a,6b,7,8,8a,9,11,13,13a,13b,14,15b-octadecahydro-1H-chryseno[1,2-f]indazol-4-a-yl)-1H-pyrazol-5-ol]	> 5000 ng/mL
CC1(C)CC[C@]2(C(=O)O)CC[C@]3(C)C(=C(c4cccnc4)CC4[C@@]5(C)Cc6c(n[nH]c6N)C(C)(C)[C@@H]5CC[C@]43C)[C@@H]2C1 (stereo partly drawn) [Example 12, (4aS,6aS,6bR,8aR,13aR,15bS)-12-Amino-2,2,6a,6b,9,9,13a-heptamethyl-15-(pyridin-3-yl)-2,3,4,4a,5,6,6a,6b,7,8,8a,9,11,13,13a,13b,14,15b-octadecahydro-1H-chryseno[1,2-f]indazole-4-a-carboxylic acid]	> 5000 ng/mL
